From PubChem BioAssay AID2551 (National Center for Advancing Translational Sciences (NCATS), 2010)
Several values for one entry are separate records, joined by “and”; a condition that tells them apart may be missing. Equal values may be shown once. Screen size: about 310,000 compounds; about 17,000 (5.5%) were called active. The inconclusive results got no clear call from the source; some entries with a clear call stand among them for comparison. The call rests on the fitted dose curve; in most records, active means well fitted inhibition curve with a large enough effect; inconclusive means small, poorly fitted or top-dose-only effect, or effect the other way; inactive means no such curve, though single readings can be large or run the other way. Potencies of inconclusive entries are doubtful fits and often do not repeat.

Amino acid sequences for entries named in this document (tags omitted). A change or cut given only in a name is not applied to a line headed by its entry.
UniProt P51450: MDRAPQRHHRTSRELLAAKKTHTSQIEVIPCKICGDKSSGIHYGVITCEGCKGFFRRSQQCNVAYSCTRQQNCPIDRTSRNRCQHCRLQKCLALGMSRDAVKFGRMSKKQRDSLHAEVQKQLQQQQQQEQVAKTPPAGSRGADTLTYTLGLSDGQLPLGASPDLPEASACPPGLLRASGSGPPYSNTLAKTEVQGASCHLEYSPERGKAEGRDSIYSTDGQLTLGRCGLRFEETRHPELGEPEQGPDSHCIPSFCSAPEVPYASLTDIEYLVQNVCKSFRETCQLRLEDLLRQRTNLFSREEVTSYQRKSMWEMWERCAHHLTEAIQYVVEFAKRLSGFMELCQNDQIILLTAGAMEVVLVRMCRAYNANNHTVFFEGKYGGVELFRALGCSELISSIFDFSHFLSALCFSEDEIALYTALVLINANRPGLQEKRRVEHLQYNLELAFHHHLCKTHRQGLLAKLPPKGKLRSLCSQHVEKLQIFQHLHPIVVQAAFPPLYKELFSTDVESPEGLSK

Biological target: Nuclear receptor ROR-gamma (Mus musculus) (UniProt P51450)
Experiment: qHTS for inhibitors of ROR gamma transcriptional activity; further: nearly all actives have a fitted effect of over 60% in size
Conditions: Drosophila S2 Gal4-RORgamma UAS-luciferase reporter, 20 h; activity change, negative = inhibition: at 53.6 µM (top of the series)
Method in brief: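 Drosophila Schneider cells stably carrying a metallothionein-driven Gal4 DBD–ROR gamma fusion and a UAS-Photinus luciferase reporter were exposed to compound for 1 hr, then induced with copper sulfate (700 uM final) for 20 hr at ambient temperature before luminescence reading.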
On the % scale 0 is the no-effect control and ±100 the full control effect; potency means the concentration at half of the fitted maximal effect.

Compound | Potency | activity change, negative = inhibition
COc1cc(S(=O)(=O)N2CCN(c3ccccc3)CC2)ccc1F | inactive | –
COc1ccc(NC(=O)c2cc(C3CC3)on2)c(OC)c1 | inconclusive: 0.158 µM [activator, full curve] | –
COc1c(Cl)ccc(Cl)c1C(=O)NC(=S)N1CCOCC1 | active: 3.55 µM | –
NC(=S)NN=C(c1ccccc1)c1ccccc1 | active: 7.08 µM | –
COc1ccc(C(=O)Nc2nc3c(s2)Cc2cc(OC)ccc2-3)cc1 | inconclusive: 0.112 µM [inhibitor, full curve, poor fit] | –
O=Nc1ccc(NOC(=O)c2ccccc2Br)cc1 | inconclusive: 35.5 µM [inhibitor, single point] | –
C=CCNC(=S)/N=c1/scc(C)n1C | inconclusive: 35.5 µM [inhibitor, single point] | –
O=C(Cc1cccs1)Nc1nnc(SCc2ccc(C(F)(F)F)cc2)s1 | active: 10 µM | –
CCCNc1nc2c(c(=O)n(C)c(=O)n2C)n1CCCc1ccccc1 | inconclusive: 31.6 µM [activator, single point] | –
CC(=O)OC[C@@H]1O[C@@H](O/N=C2/C[C@@H](O)[C@@H](O)[C@@H]3[C@@H]4C(=O)N(C5CCCCC5)C(=O)[C@H]4CC[C@@H]23)[C@H](OC(C)=O)[C@H](OC(C)=O)[C@@H]1OC(C)=O | – | inactive: -0.276% [at 10 µM]
CC1CCCN(CCC(=O)Nc2ccc(F)c(F)c2)C1 (stereo not drawn) | inactive | –
Cc1ccc(-n2nnnc2SC(C)C(=O)Nc2ccccc2-c2ccccc2)cc1 (stereo not drawn) | inconclusive: 11.2 µM [activator, single point] | –
CCOc1cnc(-c2c(-c3c(F)cccc3Cl)noc2C)o1 | inactive | –
COc1ccc(OCc2cccc(C(=O)N3CCCC3)c2)cc1 | inconclusive: 7.94 µM [activator, partial curve, poor fit] | –
Cc1ccc(-n2c(SCC(=O)Nc3ccc4c(c3)OCCO4)nnc2-c2ccco2)cc1 | inconclusive: 11.2 µM [activator, partial curve] | –
Cn1cccc1/C=N/NC(=O)c1sc2cc(Cl)ccc2c1Cl | active: 0.708 µM | –
Cc1ccc(/C(C#N)=C\c2cn(C)c3ccccc23)cc1 | inconclusive: 0.112 µM [inhibitor, single point] | –
CN(Cc1ccon1)C(=O)C1CCN(C2CCN(CCCc3ccccc3)CC2)CC1 | inactive | –
CCOC(=O)Cc1csc(NC(=O)CN2CCCCC2)n1 | inactive | –
O=C1CSC(=S)N1Cc1cccnc1 | inconclusive: 5.62 µM [inhibitor, single point] | –
CCCCn1c(SCC(=O)N2CCN(c3ccccc3)CC2)nc2ccsc2c1=O | inconclusive: 35.5 µM [inhibitor, single point] | –
Cc1ccc(S(=O)(=O)CCC(=O)N2CCN(c3ccc([N+](=O)[O-])cc3)CC2)cc1 | inconclusive: 14.1 µM [activator, single point] | –
CCC(C)NC(=S)Nc1ccc2nc(N3CCOCC3)cc(C)c2c1 (stereo not drawn) | active: 10 µM | –
O=C(Nc1ccccn1)c1cc2cc([N+](=O)[O-])ccc2s1 | inconclusive: 31.6 µM [inhibitor, single point] | –
CCOc1ccc(N2C(=O)C(CC(=O)Nc3ccccc3)N(Cc3ccccn3)C2=S)cc1 (stereo not drawn) | inconclusive: 11.2 µM [activator, partial curve] | –

Of the compounds above, these have sulfur.
Compound | Potency | activity change, negative = inhibition
COc1cc(S(=O)(=O)N2CCN(c3ccccc3)CC2)ccc1F | inactive | –
COc1c(Cl)ccc(Cl)c1C(=O)NC(=S)N1CCOCC1 | active: 3.55 µM | –
NC(=S)NN=C(c1ccccc1)c1ccccc1 | active: 7.08 µM | –
COc1ccc(C(=O)Nc2nc3c(s2)Cc2cc(OC)ccc2-3)cc1 | inconclusive: 0.112 µM [inhibitor, full curve, poor fit] | –
C=CCNC(=S)/N=c1/scc(C)n1C | inconclusive: 35.5 µM [inhibitor, single point] | –
O=C(Cc1cccs1)Nc1nnc(SCc2ccc(C(F)(F)F)cc2)s1 | active: 10 µM | –
Cc1ccc(-n2nnnc2SC(C)C(=O)Nc2ccccc2-c2ccccc2)cc1 (stereo not drawn) | inconclusive: 11.2 µM [activator, single point] | –
Cc1ccc(-n2c(SCC(=O)Nc3ccc4c(c3)OCCO4)nnc2-c2ccco2)cc1 | inconclusive: 11.2 µM [activator, partial curve] | –
Cn1cccc1/C=N/NC(=O)c1sc2cc(Cl)ccc2c1Cl | active: 0.708 µM | –
CCOC(=O)Cc1csc(NC(=O)CN2CCCCC2)n1 | inactive | –
O=C1CSC(=S)N1Cc1cccnc1 | inconclusive: 5.62 µM [inhibitor, single point] | –
CCCCn1c(SCC(=O)N2CCN(c3ccccc3)CC2)nc2ccsc2c1=O | inconclusive: 35.5 µM [inhibitor, single point] | –
Cc1ccc(S(=O)(=O)CCC(=O)N2CCN(c3ccc([N+](=O)[O-])cc3)CC2)cc1 | inconclusive: 14.1 µM [activator, single point] | –
CCC(C)NC(=S)Nc1ccc2nc(N3CCOCC3)cc(C)c2c1 (stereo not drawn) | active: 10 µM | –
O=C(Nc1ccccn1)c1cc2cc([N+](=O)[O-])ccc2s1 | inconclusive: 31.6 µM [inhibitor, single point] | –
CCOc1ccc(N2C(=O)C(CC(=O)Nc3ccccc3)N(Cc3ccccn3)C2=S)cc1 (stereo not drawn) | inconclusive: 11.2 µM [activator, partial curve] | –

Remaining list, next part.

Compound | Potency | activity change, negative = inhibition
Cc1cccc2cc(C(c3nnnn3CC3CCCO3)N3CCc4ccccc4C3)c(=O)[nH]c12 (stereo not drawn) | inconclusive: 20 µM [inhibitor, partial curve] | –
COc1ccc(S(=O)(=O)c2cnc3ccccc3n2)cc1 | active: 11.2 µM | –
Cc1ccc(OCc2nc(C#N)c(N3CCCCC3)o2)cc1 | inconclusive: 11.2 µM [activator, partial curve] | –
CC(/C=C/c1ccco1)=N/NC(=O)OC(C)(C)C | inconclusive: 35.5 µM [inhibitor, single point] | –
CCOc1ccc(-c2cn(-c3ccccc3OC)c(=S)[nH]2)cc1 | active: 3.55 µM | –
Cc1cc(C(=O)CSc2ccc(F)cc2)cc(C)c1OC(=S)N(C)C | inconclusive: 7.94 µM [inhibitor, partial curve] | –
CCC(=O)N(CC)C1=C(O)c2ccccc2C(=O)C1=O | inconclusive: 22.4 µM [inhibitor, single point] | –
COc1ccc(-c2nnn(CC(=O)N(CC(=O)NCCC(C)C)Cc3cccs3)n2)cc1OC | inactive | –
Cc1nc2ccc([N+](=O)[O-])cc2c(=O)n1Cc1ccc(F)cc1 | inconclusive: 14.1 µM [activator, single point] | –
Fc1ccc(-c2nc(-c3cnccn3)no2)c(Cl)c1 | inconclusive: 8.91 µM [inhibitor, partial curve] | –
COc1cc(-c2ccc3c(=O)c4ccccc4n(C)c3c2)cc(OC)c1OC | inconclusive: 11.2 µM [inhibitor, partial curve] | –
O=C(Nc1ccccc1)c1ccc(-c2ccccc2Cl)o1 | inactive | –
COc1cccc(CNC(=O)CCC2CCCN(C(=O)c3ccc(OC)o3)C2)c1 (stereo not drawn) | inconclusive: 31.6 µM [inhibitor, single point] | –
O=C(Nn1c(C2CCCCC2)nc2ccccc2c1=O)c1cc(Cl)ccc1[N+](=O)[O-] | inconclusive: 7.94 µM [activator, partial curve] | –
O=C(/C=C/c1cccs1)N1CCCCC1 | inactive | –
Cc1ccc(-c2csc3ncnc(Nc4ccc(C(=O)O)cc4)c23)cc1 | inconclusive: 11.2 µM [activator, partial curve] | –
O=C(CN(C1CCCCC1)S(=O)(=O)c1ccc(Br)cc1)NCc1cccnc1 | inconclusive: 31.6 µM [activator, single point] | –
O=C(/C=C/c1cccs1)c1cc(Br)ccc1OC(=O)N1CCOCC1 | inconclusive: 28.2 µM [inhibitor, single point] | –
COC(=O)C1=C(C)N(Cc2ccccc2)C(=S)N[C@H]1c1ccccc1 | active: 5.62 µM and active: 3.16 µM | –
CCC(C(=O)NC1CCCC1)N(Cc1ccccc1Cl)C(=O)c1snc(C(N)=O)c1N (stereo not drawn) | inactive | –
COc1ccc(CCNC(=S)NNC(=O)c2c(Br)c(C)nn2C)cc1OC | inconclusive: 2.51 µM [inhibitor, full curve] | –
Cc1cccc(C(=O)NC(C(=O)Nc2ccccc2N2CCOCC2)C(C)C)c1 (stereo not drawn) | inactive | –
COc1cc(Br)cc(-c2nc3c(c(=O)[nH]c(=O)n3Cc3ccccc3)n2C)c1O | inactive | –
Cc1ccccc1NC(=O)c1cnc2ccccn2c1=O | inconclusive: 1.58 µM [inhibitor, full curve] | –
COc1cccc(CN(C)C(=O)c2cc(-c3ccc(OC)c(OC)c3)nc3ccccc23)c1 | inactive | –

Compound | Potency | activity change, negative = inhibition
CCS(=O)(=O)Nc1ccc(-c2nnc(SCC(=O)c3cccc(OC)c3)o2)cc1 | inactive | –
CCc1ccc(/C=C2\CN(CC)Cc3c2nc2ccccc2c3C(=O)O)cc1 | inactive | –
c1ccc(-c2ccc(OCCCn3cncn3)cc2)cc1 | inconclusive: 3.16 µM [activator, full curve] | –
Cc1c(N=C=O)cccc1N=C=O | inactive | –
OC(COc1cccc2ccccc12)CN1CCN(c2ccccc2Cl)CC1 (stereo not drawn) | inactive | –
COc1ccc(/C=C(/NC(=O)c2ccccc2)c2nc3ccc(Cl)cc3[nH]2)cc1OC | inconclusive: 3.16 µM [activator, single point] | –
COc1cccc(NC(=O)CSc2ncc(S(=O)(=O)c3ccccc3)c(=O)[nH]2)c1 | inactive | –
COC(=O)c1cc(C(=O)OC)n(Cc2ccc(C)cc2)c1C | inactive | –
COc1ccc(-c2nc(CS(=O)CC(=O)NCc3ccc4c(c3)OCO4)c(C)o2)cc1OC (stereo not drawn) | inconclusive: 0.282 µM [inhibitor, full curve, poor fit] | –
COc1ccc(N2CCN(CCCNC(=S)Nc3c(C)cccc3C)CC2)cc1 | inconclusive: 15.8 µM [inhibitor, single point] | –
Clc1ccc(OCCCCSc2ncccn2)cc1 | inconclusive: 3.55 µM [activator, partial curve] | –
CC(C)CNC(=S)NC(=O)c1ccc(Cl)cc1 | active: 3.98 µM | –
O=C(N/N=C/c1ccsc1)c1cc(-c2cccs2)nc2ccccc12 | active: 3.98 µM | –
CCOC(=O)Nc1sc2c(c1C#N)CCCC2 | inconclusive: 0.794 µM [activator, full curve, poor fit] | –
Cc1ccc(S(=O)(=O)N2CCCCC2)cc1C(=O)Nc1ccccn1 | inactive | –
COc1cc(=O)n2c(-c3ccccc3)csc2n1 | inactive | –
Cc1c(O)cccc1C(=O)N[C@@H](CSc1ccccc1)[C@H](O)CN1C[C@H]2CCCC[C@H]2C[C@H]1C(=O)NC(C)(C)C | inconclusive: 7.08 µM [activator, partial curve, poor fit] and inconclusive: 11.2 µM [activator, partial curve] | –
CC(C)(C)c1cc(C(=O)NCc2ccccc2)ccn1 | inconclusive: 3.16 µM [activator, partial curve] | –
Cc1cc(Cl)ccc1C(=O)C1CCCN(C(=O)c2ccoc2)C1 (stereo not drawn) | inconclusive: 8.91 µM [inhibitor, single point] | –
C=CCC1(CC=C)CCCN1C(=O)C1CCC(=O)N(CCc2ccccc2)C1 (stereo not drawn) | inconclusive: 12.6 µM [activator, partial curve] | –
COc1ccccc1NC(=O)c1ccc2[nH]c(C)c(C)c2c1 | inactive | –
CCCCc1cc(=O)oc2cc(OC(C)C(=O)NCCN3CCOCC3)c(Cl)cc12 (stereo not drawn) | inactive | –
COCc1cc(=O)n2[nH]c(C)c(-c3ccccc3)c2n1 | inconclusive: 14.1 µM [inhibitor, single point] | –

Record cards, from the list above. Order of values: Potency | activity change, negative = inhibition
Cc1c(O)cccc1C(=O)N[C@@H](CSc1ccccc1)[C@H](O)CN1C[C@H]2CCCC[C@H]2C[C@H]1C(=O)NC(C)(C)C is listed with inconclusive: 7.08 µM [activator, partial curve, poor fit] and inconclusive: 11.2 µM [activator, partial curve] | –
O=C(N/N=C/c1ccsc1)c1cc(-c2cccs2)nc2ccccc12 is listed with active: 3.98 µM | –
